# The campaign covered roughly 360,000 compounds. About 780 (0.22%) were called active. Inconclusive results, whose numbers are uncertain, are shown with a selection of clear calls. No stated cut-off is given here; in the data, active means inhibition above about 35% (passing the limit was not always enough); inconclusive means no clear call, values can overlap the other calls.
# Tested on: Botulinum neurotoxin type F light chain protease (Clostridium botulinum)
# Test: BoNT/F light chain protease inhibitors, primary screen, biochemical, flow cytometry, MLPCN library (AID 588497); further: plate controls were buffer without enzyme for full effect and enzyme alone for no effect
# Conditions: Multiplex microsphere protease cleavage assay, at 10 µM, hits give high values
row,SMILES,inhibition
1,COc1ccc(N2CCN(C(=O)COC(=O)CNC(=O)c3cccc(OC(F)F)c3)CC2)cc1,inconclusive: -5.7%
2,CCCc1cc(C(=O)NNC(=S)NCC)c2ccccc2n1,inactive: 0.8%
3,Cn1c(=O)c2c(nc3n2CC(COc2ccccc2)O3)n(C)c1=O (configuration not stated),inconclusive: 8.3%
4,CCOC(=O)c1ccc(NC(=S)NNC(C)(C)C)cc1,inconclusive: -28.6%
5,CC(=O)c1ccc(-c2cccs2)s1,inactive: 4.2%
6,N#Cc1nc(-c2ccccc2Cl)oc1N1CCN(C(=O)c2ccco2)CC1,inactive: -3.5%
7,O=C(Cc1ccccc1)NC1(O)C(=O)c2ccccc2C1=O,inconclusive: 29.1%
8,O=C(Cn1c(-c2ccccn2)nc2ccccc21)N/N=C/c1cccnc1,inconclusive: -44.1%
9,OCCn1c(Cl)nc2ccccc21,inconclusive: -44.6%
10,CCN(C(=O)Nc1cccc(Cl)c1)c1ccccc1,inconclusive: -17.9%
11,COc1ccc(OC)c(/C=N\NC(=O)c2cc3c(ccc4ccccc43)o2)c1,inactive: 3.9%
12,Cc1ccc(CCNC(=O)NC(C)(C)C)cc1,inconclusive: 23.6%
13,Brc1ccc(OCc2nc3ccccc3[nH]2)cc1,inconclusive: -21.9%
14,Oc1ccc(C[C@H]2CNC(=S)N2CC2CCCN2C[C@H](Cc2ccccc2)N2C[C@H](Cc3ccc(O)cc3)N(CCc3ccccc3)C2=S)cc1 (some centres not stated),inactive: -7.8%
15,CCN(C(=O)COC(=O)c1[nH]c(C)c(C(C)=O)c1C)c1c(N)n(Cc2ccccc2)c(=O)[nH]c1=O,inactive: -6.8%
16,COc1cccc(SCC(=O)N2CCN(c3ccccc3)CC2)c1,inconclusive: -18.7%
17,CCOc1cc(/C=N/N=C2/NC(=O)C(CC(=O)O)S2)ccc1OCc1ccc(Cl)cc1Cl (configuration not stated),inactive: 5.3%
18,CCCc1cc(C(N)=O)c(NC(=O)c2ccoc2C)s1,inactive: -11.7%
19,OC[C@@H]1CN(Cc2ccc(F)cc2)C[C@H](n2cnc3c(NCc4ccncc4)ncnc32)O1,inactive: 3.9%
20,Cn1nc(-c2ccc(S(N)(=O)=O)s2)cc1C(F)(F)F,inconclusive: -142%
21,O=C(CSc1nn(-c2ccccc2)c(=S)s1)NC(=O)NCc1ccco1,inactive: -1.3%
22,O=C1CSC(=Nc2cccc(C(=O)O)c2)N1,inconclusive: -0.5%
23,O=S(=O)(c1ccc(NCCOc2ccccc2)nc1)N1CCCC1,inactive: 4.1%

row,SMILES,inhibition
1,CCOC(=O)C1=C(COC(=O)COc2ccc(C(=O)CC)cc2)NC(=O)NC1C (configuration not stated),inconclusive: 9.1%
2,Cc1ccc(C(=O)NCCN(C)C)c(C)c1,inconclusive: 4.2%
3,COc1ccc(CNC(=O)CSc2cccc3cccnc23)cc1,inconclusive: -75.8%
4,Cc1ccc(S(=O)(=O)N(C)C[C@@H]2Oc3ncc(C#CCC(C)C)cc3C(=O)N([C@H](C)CO)C[C@H]2C)cc1,inactive: -3.2%
5,COc1ccc(/C=N/Nc2cc(C)nc3ccccc23)cc1,inactive: -9.4%
6,COCCCN(C(=S)Nc1c(C)cc(C)cc1C)C(C)c1ccccn1 (configuration not stated),inactive: 1.7%
7,CCNC(=O)CCc1nc(-c2ccc(C)cc2)no1,inconclusive: 36.3%
8,CN(C)c1ccc(C(=O)/C=C/c2cccnc2)cc1,inactive: -5.8%
9,COC(=O)c1cc(-c2ccc(Br)cc2)c2c(=O)n(C)c(=O)n(C)c2n1,inconclusive: 7.5%
10,COc1ccc(CNC(=O)c2ccc(S(=O)(=O)NCc3ccco3)cc2)cc1,inconclusive: -4.6%
11,O=C(c1ccc(Br)s1)N1CCCC1,inactive: 10.8%
12,Cc1cc(NO)nc(-c2ccc(Br)cc2)n1,inactive: -5.1%
13,O=C1C2CC=C(Cl)CC2C(=O)N1CCC[n+]1ccccc1 (configuration not stated),inactive: 1.7%
14,COc1ccc(C(O)c2nc(-c3ccccc3)cs2)cc1 (configuration not stated),inactive: -4%
15,CC(=O)c1c(C)[nH]c(C(=O)OCC(=O)N2CCN(S(=O)(=O)c3ccc(C)cc3C)CC2)c1C,inconclusive: 14.9%
16,CCCOc1ccc(/C(O)=C2/C(=O)C(=O)N(CCCn3ccnc3)C2c2ccc(C)o2)cc1 (configuration not stated),inconclusive: -146%
17,O=C(COC(=O)c1cccnc1)Nc1ccc2c(c1)OCO2,inactive: -2.4%
18,CCOC(=O)c1cc2c(OC)c(OC)ccc2c2[nH]cc(C#N)c(=O)c12,inactive: -1.4%
19,CC(C)c1ncc(C(O)c2ccccc2)n1C (configuration not stated),inconclusive: -30.1%
20,Cc1nc(-c2c(C(=O)NNC(=O)Nc3c(C)cccc3C)noc2C)cs1,inconclusive: -9.5%
21,FC(F)(F)Oc1ccccc1-c1nnc(-c2cccc(C(F)(F)F)c2)o1,inconclusive: -54%
22,COc1ccc(S(=O)(=O)N2CCCC2c2cccs2)cc1 (configuration not stated),inconclusive: -28.3%
23,Cc1cc(C)c(C)c(S(=O)(=O)NCc2ccc(C(=O)N3CCCCC3)cc2)c1C,inconclusive: -39.1%

row,SMILES,inhibition
1,CC(C)c1ccc(NC(=O)COc2ccc(C3SCCS3)cc2)cc1,inconclusive: 72.7%
2,CC(=O)c1ccc(N2CCN(C(=S)Nc3ccccc3)CC2)cc1,inactive: -7.5%
3,O=C(NCc1ccco1)C(c1ccco1)N(Cc1cccs1)C(=O)Cn1nnc2ccccc21 (configuration not stated),inactive: 0.7%
4,O=C(O)/C=C/C(=O)N1Cc2cc3ccccc3nc2C1,inconclusive: -57.4%
5,COc1ccccc1C1CCN(C(=O)c2cccc([N+](=O)[O-])c2)CC1,inconclusive: -96.4%
6,N/C(CCS(=O)(=O)c1ccc(Cl)cc1)=N\OC(=O)c1ccc(Cl)cc1,inconclusive: 53.8%
7,CC1CCC(NC(=O)c2cc(S(=O)(=O)N(C)C)ccc2N2CCCC2)CC1 (configuration not stated),inactive: 19.9%
8,O=S(=O)(Cc1ccc(Cl)cc1)N1CCN(Cc2ccc3c(c2)OCO3)CC1,inconclusive: -15.5%
9,CC12CN(NC(=O)c3ccccc3F)C3(C#N)CC1CCC23C (configuration not stated),inactive: -5.9%
10,COc1cc(C2C(C#N)=C(N)Oc3cc(C)oc(=O)c32)cc(OC)c1OC (configuration not stated),inconclusive: 37.9%
11,CCOC(=O)N1CCN(C(=O)c2cccn3c(=O)c4cc(Br)ccc4nc23)CC1,inactive: -1%
12,O=C(NCCN1CCOCC1)C(Sc1ccccc1)c1ccccc1 (configuration not stated),inconclusive: 0%
13,Cc1ccc2nc3c(cc2c1)c(NC(=O)c1ccco1)nn3CC(C)C,inconclusive: 44.2%
14,COc1ccc(Br)cc1CNCCc1ccc2c(c1)OCO2,inconclusive: 128%
15,O=S1(=O)N=C(N(CCO)/N=C/c2ccc(Br)cc2)c2ccccc21,inconclusive: -25.3%
16,C=CCNC(=O)CN1CCN(C(c2ccccc2)c2ccccc2)CC1,inconclusive: 4.2%
17,COc1ccc(CN2CCN(Cc3ccco3)CC2)cc1OC,inconclusive: 14.5%
18,Cc1ccc2oc(=O)n(CC(=O)N3CCOCC3)c2c1,inconclusive: 9.5%
19,COc1ccc(NC(=O)c2cc(-c3cc(C)ccc3O)n[nH]2)cc1Cl,inconclusive: -19.2%
20,Cn1c(=O)c2c(nc(N3CCCCCC3)n2CC(O)COc2ccccc2)n(C)c1=O (configuration not stated),inconclusive: 19.3%
21,O=C(Nc1ccc(Oc2ncnc3cc(Cl)ccc23)nc1)Nc1cccc(C(F)(F)F)c1,inconclusive: -45.3%
22,Cc1ccc(C)n1Cc1ccc(C(=O)O)cc1,inactive: 2.7%
23,CC(C)(C)NC(=O)CSc1nnc(-c2ccccc2)c(-c2ccccc2)n1,inconclusive: -10.5%

row,SMILES,inhibition
1,CCc1nnc(NS(=O)(=O)c2ccccc2)s1,inconclusive: 22.6%
2,CCCCn1c(N)c(N(CC(C)C)C(=O)c2ccc(Cl)c(S(=O)(=O)N3CCCC3)c2)c(=O)[nH]c1=O,inconclusive: 5%
3,COc1ccc(OC)c(NC(=O)Nc2ccc3[nH]ccc3c2)c1,inconclusive: -14.9%
4,C=C(C)C1CC=C(C)/C(=N/NC(=O)CNc2ccc(C)cc2C)C1 (configuration not stated),inactive: -4.2%
5,CCCn1nc(CC(=O)OCC)c2ccccc2c1=O,inconclusive: 38.8%
6,Cc1ccc(C)c(-n2c(SCC(N)=O)nnc2-c2ccccn2)c1,inconclusive: -10.6%
7,Cc1nc(SCC(=O)NCC2CCCO2)[nH]c(=O)c1C (configuration not stated),inconclusive: 5.1%
8,Cn1c2c(c(=O)n(C)c1=O)C(c1cccc([N+](=O)[O-])c1)Nc1ccccc1O2 (configuration not stated),inconclusive: -13.2%
9,O=C(OCC(=O)N1CCc2ccccc21)c1ccc[n+]([O-])c1,inconclusive: -35.5%
10,O=C(NC1CCN(S(=O)(=O)c2ccc(F)cc2)CC1)c1cccc(F)c1,inconclusive: 18.6%
11,COc1ccc2c(=O)c(C(=O)NCCc3ccccc3)c[nH]c2c1,inconclusive: -11.4%
12,Cc1nc2ccccn2c1C(=O)NNC(=S)Nc1ccccc1,inconclusive: 11.5%
13,COc1ccc(NC(=O)c2cccnc2)cc1,inconclusive: -33.3%
14,CC(=O)N1N=C(c2ccc3ccccc3c2)OC1(C)C,inactive: -0.4%
15,N#Cc1ccc(C(=O)NC(=S)NC2CCCCC2)cc1,inconclusive: -10.7%
16,Cc1cccnc1NC(=O)c1ccc2c(c1)OCO2,inconclusive: 1.8%
17,CC(=O)c1cn(CC(=O)NCCc2c[nH]c3ccccc23)c2ccccc12,inconclusive: -39.6%
18,CC(=O)Nc1nc2ccccc2n1Cc1ccccc1Cl,inconclusive: -50.7%
19,COc1ccc(CN2CCC(C(=O)c3ccc(F)cc3)CC2)cc1,inconclusive: -5.2%
20,CC(=O)c1nn(-c2ccccc2)cc1C(=O)c1ccc(C)cc1,inconclusive: -27.1%
21,Fc1ccc(CNc2ccccn2)cc1,inconclusive: 18.4%
22,COc1ccc(NC(=O)c2cccc(Cl)c2)c[n+]1[O-],inconclusive: 24.6%
23,O=C(O)CCC(=O)Nc1nnc(C(F)(F)F)s1,inconclusive: -12.6%

# Compounds above with a nitro group on carbon, in the order listed:
row,SMILES,inhibition
5,COc1ccccc1C1CCN(C(=O)c2cccc([N+](=O)[O-])c2)CC1,inconclusive: -96.4%
8,Cn1c2c(c(=O)n(C)c1=O)C(c1cccc([N+](=O)[O-])c1)Nc1ccccc1O2 (configuration not stated),inconclusive: -13.2%

# Reference: PubChem BioAssay AID588497 (NMMLSC, 2011)
